System: Recombinant CHO-K1 cells producing a humanized monoclonal antibody
Test: Phe→xTyr sequence variant quantification in produced antibody (tryptic peptide LC-MS), with penalty factor and critical ratio calculation
Type: cell-based, Chinese Hamster
Details: 0.1 mM, 0.3 mM and 0.4 mM supplementation at day 14

| SMILES | Measured maximum xTyr misincorporation (tracer peptide HC66-72) | Measured maximum xTyr misincorporation (tracer peptide HC129-140) |
| --- | --- | --- |
| N[C@@H](Cc1cccc(O)c1)C(=O)O [meta-Tyr, meta-tyrosine] | 1.5-2.4% | 1.9-3.0% |
| NC(Cc1ccccc1O)C(=O)O (stereo not shown) [ortho-Tyr, ortho-tyrosine, reference compound] | 1.6-2.0% | 2.3-2.7% |
